Data as given in PubChem BioAssay AID493246 (Drosophila RNAi Screening Center, 2011)
In all, the deposit lists about 21,000 reagents; this is an unselected part of those with a known target gene and a result. Of all reagents, 429 (2%) are marked active. 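Values are raw and not normalised between plates; calls rest on per-plate z-scores that were not deposited.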 A number with no mark means an inactive call. The record does not give: the amount of reagent, the time to read-out.

- Aim: 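Identify essential fly genes by loss of cell viability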 (primary screen)
- Cells: Drosophila Kc and S2R+ cells
- Knock-down reagent: long dsRNA against Drosophila genes
- Read-out: 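Raw, unnormalised count of remaining cells in each well; per-plate z-scores of cell number underlie the calls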
- Scale: Kc cell number and S2R+ cell number: higher = more cells remaining
- Active means: 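Counted as a hit if cell number falls by a z-score of at least 3 within its plate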

Kc cell number, rep 1 | Kc cell number, rep 2 | S2R+ cell number, rep 1 | S2R+ cell number, rep 2 | target gene | dsRNA
1.48e6 | 1.54e6 | 1.35e6 | 1.48e6 | TkR86C (Tachykinin-like receptor at 86C) | DRSC16880
6.62e5 (active) | 8.65e5 | 5.59e5 | 5.99e5 | Fs(2)Ket (Female sterile (2) Ketel) | DRSC03328
1.49e6 | 1.52e6 | 1.05e6 | 1.13e6 | CG31639 | DRSC00910
1.33e6 | 1.37e6 | 9.82e5 | 1.12e6 | CG7900 | DRSC16336
1.43e6 | 1.42e6 | 9.82e5 | 1.11e6 | CG1983 | DRSC15410
1.49e6 | 1.58e6 | 1.24e6 | 1.32e6 | CG12164 | DRSC06115
1.66e6 | 1.38e6 | 1.14e6 | 1.29e6 | Muc26B (Mucin 26B) | DRSC02322
1.46e6 | 1.47e6 | 1.02e6 | 1.13e6 | mthl13 (methuselah-like 13) | DRSC05238
1.42e6 | 1.51e6 | 1.24e6 | 1.38e6 | Spn43Ab (Serpin 43Ab) | DRSC06781
1.57e6 | 1.72e6 | 1.29e6 | 1.46e6 | mtsh (mitoshell) | DRSC03070
1.60e6 | 1.62e6 | 1.32e6 | 1.45e6 | CG16888 | DRSC02541
1.52e6 | 1.56e6 | 1.08e6 | 1.16e6 | CG5934 | DRSC15922
1.16e6 | 1.17e6 | 1.16e6 | 1.13e6 | heix (heixuedian) | DRSC03542
1.54e6 | 1.66e6 | 1.17e6 | 1.23e6 | ssp2 (short spindle 2) | DRSC11052
1.69e6 | 1.67e6 | 1.15e6 | 1.31e6 | CG11617 | DRSC00321
1.35e6 | 1.43e6 | 1.18e6 | 1.27e6 | Baldspot | DRSC09671
1.33e6 | 1.29e6 | 1.14e6 | 1.20e6 | sano (serrano) | DRSC06165
1.37e6 | 1.42e6 | 1.05e6 | 1.15e6 | PK2-R1 (Pyrokinin 2 receptor 1) | DRSC16447
1.12e6 | 1.28e6 | 1.12e6 | 1.11e6 | CG3526 | DRSC17240
1.55e6 | 1.51e6 | 1.04e6 | 1.16e6 | CG3526 | DRSC18636
1.70e6 | 1.80e6 | 1.45e6 | 1.52e6 | Qsox1 (Quiescin sulfhydryl oxidase 1) | DRSC06878
6.54e5 | – | 9.54e5 | – | CG4239 | DRSC19885
1.42e6 | 1.43e6 | 1.35e6 | 1.29e6 | CG11560 | DRSC09843
1.47e6 | 1.45e6 | 9.35e5 | 1.11e6 | Spag1 (Spag1 axonemal dynein assembly factor) | DRSC15331

2 entries already listed, sorted by “Kc cell number, rep 1”, high to low.
Kc cell number, rep 1 | Kc cell number, rep 2 | S2R+ cell number, rep 1 | S2R+ cell number, rep 2 | target gene | dsRNA
1.69e6 | 1.67e6 | 1.15e6 | 1.31e6 | CG11617 | DRSC00321
1.35e6 | 1.43e6 | 1.18e6 | 1.27e6 | Baldspot | DRSC09671
